Experimental data reported in PubChem BioAssay AID1439 (NMMLSC, 2008).
In all, about 220,000 compounds went through this assay and about 770 (0.35%) were called active. The shares of active, inactive and inconclusive entries below differ from those in the screen. Cut-off read from the data, not from the text of the source: active = binding response below about 49% or above about 150%; inconclusive = no clear call, values can overlap the other calls; inactive = in between.

The chains behind the UniProt entries cited, without tags or fusion partners.
UniProt P09471, whole entry, looked up: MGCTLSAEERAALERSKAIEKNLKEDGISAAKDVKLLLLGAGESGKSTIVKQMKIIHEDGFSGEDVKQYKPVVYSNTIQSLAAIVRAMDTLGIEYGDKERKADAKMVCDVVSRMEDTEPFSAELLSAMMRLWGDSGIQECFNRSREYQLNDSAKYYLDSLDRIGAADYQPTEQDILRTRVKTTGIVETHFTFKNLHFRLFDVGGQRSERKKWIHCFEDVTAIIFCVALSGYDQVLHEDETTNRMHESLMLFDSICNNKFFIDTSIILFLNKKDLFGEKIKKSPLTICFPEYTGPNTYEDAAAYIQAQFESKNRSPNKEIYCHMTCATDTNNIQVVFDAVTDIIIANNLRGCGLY

Biological target: Guanine nucleotide-binding protein G(o) subunit alpha (Homo sapiens) (UniProt P09471)
Assay: RGS7-Galphao binding modulators, primary screen, biochemical, multiplexed bead flow cytometry (AID 1439);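 note: fluorescent Galphao held in activated GDP-AlF4 state binding bead-coupled RGS7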
Settings: at 10 µM, actives lie on both sides

| Compound | binding response (% of control) |
| --- | --- |
| NC(=O)c1ccc(NC(=O)COC(=O)c2ccc([N+](=O)[O-])cc2)cc1 | inconclusive: -91.6% |
